Results taken from patent US11028174 (LEPU BIOPHARMA, dated 2021).
These are yes or no findings as the source states them, for the method shown. Some entries that bind do so weakly or less than the wild type.

B1: 47C6A3 chimeric mAb (antibody, V domains shown)
VH: DVQLQESGPGLVKPSQSLSLTCTVTGYSITSDYAWNWIRQFPGNKLEWMGYIIYSGSTSYNPSLKSRISITRDTSKNQFFLQLNSVTTEDTATYYCARSTMIATNWFAYWGQGTLVTVSA
VL: DIVMTQSHKFMSTSVVDRVSITCKASQDVSLAVAWYQQKPGQSPKLLIYWASTRHTGVPDRFTGSGSGTDFALTISSVQAEDLALYYCQQHYITPWTFGGGTKLEIK
notes: also called 47C6A3-chimera
B2: 67F3G7 chimeric mAb (antibody, V domains shown)
VH: QVKLLQSGAALVKPGASVKMSCKASGYIFTDFWVSWVKQSHEKSLEWIGEIYPNSGVSRYNEKFKGRATMTVDKSTSTAYLELSRLTSEDSAIYYCTKYFGYTYWFGYWGQGTLVTVSS
VL: DTVLTQSPALAVSLGQRITISCRASKSVSTYMHWYQQRSGLQPKLLIYSASHLESGVPSRFSGSGSGTDFTLTIDPVEADDIANYYCQQSNELPVTFGSGTKLEIK
notes: also called 67F3G7-chimera
B3: 89C10H8 chimeric mAb (antibody, V domains shown)
VH: EVQLVESGGGLVQPGRSLTLSCVASGFTFSNYWMTWIRQAPGKGLEWVASITNTGSSTFYPDSVKGRFTISRDNTRSTLFLQINSLRSEDTATYYCTRDTTIAPFDYWGQGVMVTVSS
VL: DIQMTQSPSFLSASVGDRVTITCKASQNLNEYLNWYQQKLGEAPKRLIYKTNTLQAGIPSRFSGSGSGIDYTLTISSLQPEDVATYFCSQYNSGNTFGAGTKLELK
notes: also called 89C10H8-chimera

Each binder was assayed against cynomolgus PD-L1 protein (cynomolgus) (UniProt G7PSE7) (assay: ELISA, coated cynomolgus PD-L1).

Binder | binding
B1 | binds
B2 | binds
B3 | binds
